{"source": "patent US9603980B2", "about": "“Layer-by-layer stereocomplexed polymers as drug depot carriers or coatings in medical devices” (Cardinal Health Switzerland 515 GmbH, priority 2008, dated 2017)", "key": {"[1]": {"experiment": "Drug concentration in liquid formulations (liquid chromatography / HPLC assay)", "type": "physicochemical", "text": "In accordance with exemplary embodiments of the present invention, a series of liquid formulations were developed for the local or regional delivery of water insoluble compounds such as sirolimus and its analogs, including CCI-779, ABT-578 and everolimus, through weeping balloons and catheter injection needles. […] These liquid formulations increase the apparent solubility of the pharmacologically active but water insoluble compounds by two to four orders of magnitude as compared to the solubility limits of the compounds in water. These liquid formulations rely on the use of a very small amount of organic solvents such as Ethanol (typically less than two percent) and a larger amount of safe amphiphilic (of or relating to a molecule having a polar, water soluble group attached to a non-polar, water insoluble […]) excipients such as polyethylene glycol (PEG 200, PEG 400) and vitamin E TPGS to enhance the solubility of the compounds. These liquid formulations of highly water insoluble compounds are stable and readily flowable at room temperature. Certain excipients, such as Vitamin E TPGS and BHT may be utilized to enhance the storage stability of sirolimus compounds through their anti-oxidation properties.\nTable 9, shown below, summarizes the concentrations of the excipient, the co-solvents and the drug for four different liquid formulations in accordance with exemplary embodiments of the present invention.\nAs set forth above, a liquid formulation comprising 4 mg/ml of sirolimus may be achieved utilizing PEG 200 as the excipient and ethanol and water as the co-solvents. […] The high concentration of sirolimus is necessary to maintain an effective and high local concentration of sirolimus after delivery to the site. The liquid formulations are flowable at room temperature and are compatible with a number of delivery devices. Specifically, each of these formulations were successfully injected through an infusion catheter designated by the brand name CRESCENDO™ from Cordis Corporation, Miami, Fla., as described in more detail subsequently, and the EndoBionics Micro Syringe™ Infusion Catheter available from EndoBionics, Inc., San Leandros, Calif., as described in more detail above, in porcine studies.\nIn another exemplary embodiment, the liquid formulation of sirolimus comprises water and ethanol as co-solvents and Vitamin E TPGS as the excipient. The liquid formulation was created utilizing the following process. Two hundred milligrams of sirolimus and two grams of ethanol were added to a pre-weighed twenty milliliter scintillation vial. The vial was vortexed and sonicated until the sirolimus was completely dissolved. Approximately six hundred milligrams of Vitamin E TPGS was then added to the solution of ethanol and sirolimus. […]"}, "[2]": {"tested_on": "monocyte chemotactic protein (MCP-1)", "experiment": "Cytokine levels in vascular tissue after delivery from a stent", "type": "in vivo", "settings": "delivered from a stent"}, "[3]": {"tested_on": "neointimal hyperplasia", "experiment": "Porcine studies with rapamycin-coated stents", "type": "in vivo", "settings": "porcine and rabbit models, nonerodible polymeric stent coating, 35-430 ug/15-18 mm coronary stent, maximal at about twenty-eight to thirty days"}, "[4]": {"experiment": "In vitro release kinetics from layered rapamycin / Panzem coating", "type": "physicochemical", "settings": "Bx Velocity stent; inner layer Panzem/EVA/BMA, outer layer rapamycin/EVA/BMA, no topcoat"}, "[5]": {"experiment": "In vitro release of sirolimus and cilostazol from single-layer coating", "type": "physicochemical", "settings": "single-layer coating of FIG. 83"}}, "note": "“And” between values parts separate entries of the source, which are not always exact repeats. Equal values may be shown once. At least one compound was matched to its structure with a doubt left."}
{"smiles": "CO[C@H]1C[C@@H]2CC[C@@H](C)[C@@](O)(O2)C(=O)C(=O)N2CCCC[C@H]2C(=O)O[C@H]([C@H](C)C[C@@H]2CC[C@@H](O)[C@H](OC)C2)CC(=O)[C@H](C)/C=C(\\C)[C@@H](O)[C@@H](OC)C(=O)[C@H](C)C[C@H](C)/C=C/C=C/C=C/1C", "note": "[rapamycin]", "values": [{"measurement": "dilution with water before sirolimus starts to precipitate", "setting": "[1]; 4 mg/ml formulation with PEG 200", "value": "five to ten"}, {"measurement": "Sirolimus conc.", "setting": "[1]; EtOH 2.0 %, H2O 25 %, PEG 200 75 %, names of these two formulations not given, listed as Sirolimus", "value": "2.0 mg/mL and 4 mg/mL"}, {"measurement": "concentration in the final solution (HPLC assay)", "setting": "[1]; ethanol less than two percent, Vitamin E TPGS, water", "value": 15000, "unit": "µg/mL"}, {"measurement": "concentration of sirolimus achieved", "setting": "[1]; ethanol two percent, water twenty-five percent, PEG 200 seventy-five percent", "value": 4000, "unit": "µg/mL"}, {"measurement": "monocyte chemotactic protein (MCP-1) levels in the vascular wall", "setting": "[2]", "value": "highly effective in reducing"}, {"measurement": "peak reduction in neointimal hyperplasia", "setting": "[3]", "value": "fifty to fifty-five"}, {"measurement": "in vitro elution, compared with co-loaded drug", "setting": "[4]", "value": "elutes more slowly than Panzem®"}, {"measurement": "in vitro release", "setting": "[5]", "value": "~35", "unit": "%"}]}
